Reference: PMC3441895
No constants are given. Whether binding was seen depends on the method and setting. Binding seen in cells or lysates may run through a third protein. Some results given as binding are weak or reduced against the parent protein; the word gives no strength. Where a sequence is shown, tags or fusion partners need not be part of it.

Amino acid sequences for entries named in this document (tags omitted).
UniProt P38249: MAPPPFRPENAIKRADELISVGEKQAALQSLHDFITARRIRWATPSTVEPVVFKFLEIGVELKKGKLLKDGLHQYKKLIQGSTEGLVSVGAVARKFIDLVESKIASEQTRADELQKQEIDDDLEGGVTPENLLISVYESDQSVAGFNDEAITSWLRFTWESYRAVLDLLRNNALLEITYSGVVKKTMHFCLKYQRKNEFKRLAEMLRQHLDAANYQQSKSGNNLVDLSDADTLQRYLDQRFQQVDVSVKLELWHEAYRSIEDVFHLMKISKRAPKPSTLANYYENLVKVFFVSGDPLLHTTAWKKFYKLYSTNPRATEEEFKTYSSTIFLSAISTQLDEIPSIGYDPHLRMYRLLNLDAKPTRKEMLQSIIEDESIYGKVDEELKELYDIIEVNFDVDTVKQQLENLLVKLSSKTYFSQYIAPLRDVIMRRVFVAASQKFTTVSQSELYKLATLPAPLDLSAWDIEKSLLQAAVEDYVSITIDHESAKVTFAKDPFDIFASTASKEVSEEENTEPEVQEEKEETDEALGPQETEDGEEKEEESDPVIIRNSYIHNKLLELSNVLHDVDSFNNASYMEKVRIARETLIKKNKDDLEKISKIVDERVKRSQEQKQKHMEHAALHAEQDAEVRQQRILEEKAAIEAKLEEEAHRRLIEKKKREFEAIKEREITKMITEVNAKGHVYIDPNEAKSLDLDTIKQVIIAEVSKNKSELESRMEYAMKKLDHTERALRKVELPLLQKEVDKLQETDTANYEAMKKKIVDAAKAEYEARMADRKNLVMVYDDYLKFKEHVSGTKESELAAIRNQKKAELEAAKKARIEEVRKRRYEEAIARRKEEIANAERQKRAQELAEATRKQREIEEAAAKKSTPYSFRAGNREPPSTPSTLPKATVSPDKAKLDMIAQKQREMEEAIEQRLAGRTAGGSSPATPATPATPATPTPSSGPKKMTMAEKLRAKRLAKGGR

T1: TAP-tagged Yhr087wp (S. cerevisiae) (UniProt P38804)
T1 sequence: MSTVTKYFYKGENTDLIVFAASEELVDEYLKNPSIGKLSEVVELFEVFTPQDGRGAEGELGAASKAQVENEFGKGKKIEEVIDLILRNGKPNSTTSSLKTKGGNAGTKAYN


These molecules were tested against T1, TAP-tagged Yhr087wp (S. cerevisiae) (assay: co-IP; lysate of cells transferred for 90 min to YP20 (50 mM Tris-HCl pH 8.0, 5 mM EDTA, 250 mM NaCl, 0.01% Triton X-100); Yhr087wp-TAP precipitated on Dynabeads IgG Pan Mouse, 2 h at 4°C; HA-tagged proteins detected by Western with anti-HA 3F10).

binding	Molecule
binds	HA-tagged Tif32p (from UniProt P38249 1-964)
binds	HA-tagged Tif4631p (protein, UniProt P39935 1-952) MTDETAHPTQSASKQESAALKQTGDDQQESQQQRGYTNYNNGSNYTQKKPYNSNRPHQQRGGKFGPNRYNNRGNYNGGGSFRGGHMGANSSNVPWTGYYNNYPVYYQPQQMAAAGSAPANPIPVEEKSPVPTKIEITTKSGEHLDLKEQHKAKLQSQERSTVSPQPESKLKETSDSTSTSTPTPTPSTNDSKASSEENISEAEKTRRNFIEQVKLRKAALEKKRKEQLEGSSGNNNIPMKTTPENVEEKGSDKPEVTEKTKPAEEKSAEPEVKQETPAEEGEQGEKGQIKEESTPKVLTFAERLKLKKQQKEREEKTEGKENKEVPVQEETKSAIESAPVPPSEQVKEETEVAETEQSNIDESATTPAIPTKSDEAEAEVEAEAGDAGTKIGLEAEIETTTDETDDGTNTVSHILNVLKDATPIEDVFSFNYPEGIEGPDIKYKKEHVKYTYGPTFLLQFKDKLNVKADAEWVQSTASKIVIPPGMGRGNRSRDSGRFGNNSSRGHDFRNTSVRNMDDRANSRTSSKRRSKRMNDDRRSNRSYTSRRDRERGSYRNEEKREDDKPKEEVAPLVPSANRWVPKFKSKKTEKKLAPDGKTELLDKDEVERKMKSLLNKLTLEMFDAISSEILAIANISVWETNGETLKAVIEQIFLKACDEPHWSSMYAQLCGKVVKELNPDITDETNEGKTGPKLVLHYLVARCHAEFDKGWTDKLPTNEDGTPLEPEMMSEEYYAAASAKRRGLGLVRFIGFLYRLNLLTGKMMFECFRRLMKDLTDSPSEETLESVVELLNTVGEQFETDSFRTGQATLEGSQLLDSLFGILDNIIQTAKISSRIKFKLIDIKELRHDKNWNSDKKDNGPKTIQQIHEEEERQRQLKNNSRSNSRRTNNSSNRHSFRRDAPPASKDSFITTRTYSQRNSQRAPPPKEEPAAPTSTATNMFSALMGESDDEE
binds	HA-tagged Cdc33p (protein, UniProt P07260 1-213) MSVEEVSKKFEENVSVDDTTATPKTVLSDSAHFDVKHPLNTKWTLWYTKPAVDKSESWSDLLRPVTSFQTVEEFWAIIQNIPEPHELPLKSDYHVFRNDVRPEWEDEANAKGGKWSFQLRGKGADIDELWLRTLLAVIGETIDEDDSQINGVVLSIRKGGNKFALWTKSEDKEPLLRIGGKFKQVLKLTDDGHLEFFPHSSANGRHPQPSITL
binds	HA-tagged Sti1p (protein, UniProt P15705 1-589) MSLTADEYKQQGNAAFTAKDYDKAIELFTKAIEVSETPNHVLYSNRSACYTSLKKFSDALNDANECVKINPSWSKGYNRLGAAHLGLGDLDEAESNYKKALELDASNKAAKEGLDQVHRTQQARQAQPDLGLTQLFADPNLIENLKKNPKTSEMMKDPQLVAKLIGYKQNPQAIGQDLFTDPRLMTIMATLMGVDLNMDDINQSNSMPKEPETSKSTEQKKDAEPQSDSTTSKENSSKAPQKEESKESEPMEVDEDDSKIEADKEKAEGNKFYKARQFDEAIEHYNKAWELHKDITYLNNRAAAEYEKGEYETAISTLNDAVEQGREMRADYKVISKSFARIGNAYHKLGDLKKTIEYYQKSLTEHRTADILTKLRNAEKELKKAEAEAYVNPEKAEEARLEGKEYFTKSDWPNAVKAYTEMIKRAPEDARGYSNRAAALAKLMSFPEAIADCNKAIEKDPNFVRAYIRKATAQIAVKEYASALETLDAARTKDAEVNNGSSAREIDQLYYKASQQRFQPGTSNETPEETYQRAMKDPEVAAIMQDPVMQSILQQAQQNPAALQEHMKNPEVFKKIQTLIAAGIIRTGR
